Source: ChEMBL document CHEMBL3988442, “University of Dundee, Small-Polar-MMV Screening Library” (2021).

Each number is a percent effect as filed. The controls that fix the scale are not given in the record; negative values are as filed. This is an unselected part of the compounds tested.

A: 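Whole-parasite assay of Trypanosoma brucei over 72 hours; the read-out is not stated. Compounds at 30 µM. The record gives no direction; compounds that gave an IC50 in retests scored well above the rest, so higher reads as stronger inhibition. Values scatter widely below zero; nearly all retest evidence comes from the higher of the two concentrations used. Size under these conditions: about 64,000 compounds, about 940 of them at 50% or above in at least one test.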
B: 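Assay of Toxoplasma gondii numbers, read through their beta-galactosidase reporter with a colour substrate. Concentration: 10 µM. The record gives no direction; the compounds picked for IC50 retests had high values, so higher reads as fewer parasites. Of about 67,000 compounds tested this way, about 260 (0.38%) reached 50% or more in at least one test.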

O=c1ccc(-c2cccs2)nn1CN1CCc2ccccc2C1 gave A: -34.09%; B: 0.5021%.
[H][C@@]12CCCO[C@]1([H])[C@H](N(C)Cc1cccnc1)CN2c1ncc(F)cn1 gave A: -11.88%; B: 1.5%.
CN1CCCC(c2nccnc2-c2cccc(Cl)c2)C1 (stereo not drawn) gave A: -8.972%; B: 11.59%.
COCC(=O)N1CCC2(CC1)CC(OC)c1ccc(F)cc12 (stereo not drawn) gave A: -68.79%; B: 1.33%.
O=C(c1cnn2ccccc12)N1CCCC(OCc2ccccn2)C1 (stereo not drawn) gave A: -53.53%; B: 17.79%.
Cc1nc(CN2CCCN(C(=O)c3c(C)noc3C)CC2)cs1 gave A: -11.24%; B: 4.826%.
Cc1cnn(CCC(=O)N2CCCN(c3cccnn3)CC2)c1 gave A: 5.761%; B: 0.8436%.
Cc1nc(NC(=O)OC(C)(C)C)sc1C(N)=O gave A: -44.98%; B: -3.721%.
O=C(N1CCCC1)N1CCC2(CC1)CN(c1cccnc1)C(=O)CO2.O=C(O)C(F)(F)F gave A: -61.2%; B: -18.33%.
NC(=O)CSCCC(=O)N1CCCC1c1ccsc1 (stereo not drawn) gave A: -12.22%; B: -0.4071%.
O=C(O)C(F)(F)F.[H][C@@]12OCCN(C(=O)c3ccoc3C)[C@@]1([H])CC[C@H]2Oc1cccnc1 gave A: -22.24%; B: -0.9613%.
CS(=O)(=O)Nc1ccc2c(c1)NC(=O)CC2c1cnn2cccnc12 (stereo not drawn) gave A: -9.274%; B: 28.87%.
CCc1sc(-c2nnc(CNCCn3cc(C)cn3)o2)cc1C gave A: -8.98%; B: -1.112%.
N#Cc1cccc(CN2CCC3(CC(C(=O)NCC4CC4)=NO3)C2)c1 (stereo not drawn) gave A: 4.675%; B: 2.058%.
COc1ccc(-c2nc(CCNCc3ccncc3)co2)cc1 gave A: 13.13%; B: -0.09074%.
COCc1ccc(C(=O)NS(=O)(=O)c2ccc3c(c2)CCC(=O)N3)cc1 gave A: -30.85%; B: -43.07%.
O=C(Cc1ccccc1Cl)Nc1cc(N2CCCC2)ncn1 gave A: -11.61%; B: -10.96%.
Cc1csc(NC(=O)CN(C)CCOc2cccc(F)c2)n1 gave A: -13.2%; B: -6.333%.
COc1ccc(OC)c(C(C)NC(=O)Nc2nnc(C)s2)c1 (stereo not drawn) gave A: -35.65%; B: -36.23%.
COC(=O)CCC(=O)N(C/C=C/c1ccccc1)CCO gave B: -36.72%.
CCn1cc(NC(=O)NCC(O)CN2CCCCC2)cn1 (stereo not drawn) gave A: -10.04%; B: -3.249%.
COc1c(C)cnc(CNC(=O)CCOCC(C)C)c1C gave A: -3.676%; B: 1.641%.
Cc1cc(C)n(CC(=O)Nc2cc(-c3ccncc3)[nH]n2)n1 gave A: 13.31%; B: -2.291%.
Cc1cccc(NC(=O)c2[nH]nc(C(C)C)c2Br)n1 gave A: 56.85%; B: -0.7994%.
Cn1c(CN2CCC(OCc3cccnc3)CC2)cc2ccccc21 gave A: 44.71%; B: 14.23%.
CC(NCC(=O)N1CCc2sccc2C1)c1ccccc1F (stereo not drawn) gave A: -40.81%; B: -7.987%.
CC(C(=O)N(C)C)S(=O)(=O)c1cc2c(cc1Cl)OCCO2 (stereo not drawn) gave A: 16.68%; B: 2.513%.
Cc1ccc(-n2nnnc2SCN2CCCCC2=O)cc1C gave A: 10.51%; B: -1.509%.
CC1c2ccc(F)cc2CCN1C(=O)c1[nH]c(=O)[nH]c(=O)c1N (stereo not drawn) gave A: -9.869%; B: 1.906%.

Once more, the final 3:

{"smiles": "CC(C(=O)N(C)C)S(=O)(=O)c1cc2c(cc1Cl)OCCO2", "stereo": "stereo not drawn", "A": 16.68, "B": 2.513}
{"smiles": "Cc1ccc(-n2nnnc2SCN2CCCCC2=O)cc1C", "A": 10.51, "B": -1.509}
{"smiles": "CC1c2ccc(F)cc2CCN1C(=O)c1[nH]c(=O)[nH]c(=O)c1N", "stereo": "stereo not drawn", "A": -9.869, "B": 1.906}